Data reported in patent US20110130466A1 (priority 2009, published 2011).
Where “and” joins values, the source holds several entries; their conditions need not be identical. Equal values may be shown once. Read-outs that look alike come from different tables or passages of the source. The source gives many values for each of these; only a part stands here.

Tested on: PSP patients
Conditions: individual PSP patient (table line = patient Nr)
Method: Eight men and nine women were treated.
The following clinical factors were analyzed: • 1. Patients and relatives received a protocol to document the frequency of falls. • 2. 12 of the patients were analyzed using posturographic measurements. • 3. Depression was evaluated using clinical criteria (DSM-IV). • 4. Eye movements were orthoptically evaluated (in some cases an electronystagmogram was performed). • 5. Dysarthria was investigated using the Bogenhausener dysarthria scale (BoDys) (ranges from 4=normal until 0=anarthria). • 6. Dysphagia was clinically documented and the introduction of a percutaneous feeding tube (PEG) was recorded. • 7. Incidence of pneumonia was recorded. • 8. Impulse control disorder and hallucinations were recorded. • 9. Possible side effects were recorded. • 10.

## C#CCN[C@@H]1CCc2ccccc21 [rasagiline, R(+)-N-propargyl-1-aminoindan]
1 Month of rasagiline 1 mg/day
  frequency of falls: 13 falls/week and 25 falls/week
2 Months of rasagiline 1 mg/day
  frequency of falls: 21 falls/week and 12 falls/week and 27 falls/week
3 Months of rasagiline 1 mg/day
  frequency of falls: 12 falls/week
6 Months of rasagiline 1 mg/day
  frequency of falls: 13 falls/week and 22 falls/week and 25 falls/week
7 Months of rasagiline 1 mg/day
  frequency of falls: 18 falls/week and 26 falls/week
8 Months of rasagiline 1 mg/day
  frequency of falls: 16 falls/week and 29 falls/week and 28 falls/week
9 Months of rasagiline 1 mg/day
  frequency of falls: 15 falls/week and 26 falls/week
10 Months of rasagiline 1 mg/day
  frequency of falls: 18 falls/week and 24 falls/week
11 Months of rasagiline 1 mg/day
  frequency of falls: 25 falls/week and 18 falls/week
12 Months of rasagiline 1 mg/day
  frequency of falls: 20 falls/week and 29 falls/week
